# From patent US10322143B2, “Inhibitors of ADAMTS4 or ADAMTS5 for use in preventing or treating cardiac remodeling and chronic heart failure” (Universitetet i Oslo, priority 2013, dated 2019)
# System: aortic banding rats
# Experiment: Aortic banding rat model: echocardiography and organ weights after PPS-treatment
# Type: in vivo
# Conditions: PPS 6 mg/kg s.c. every third day, mean ± SEM
# Excerpt: The experimental procedures conformed to the European Convention for the Protection of Vertebrate Animals Used for Experimental and Other Scientific Purposes, and the protocols were approved by the Norwegian Council for Animal Research. Male Wistar rats weighing 160-170 g underwent AB essentially as described previously (Lunde et al. Physiol Genomics 2011. 44(2):162-72). Briefly, the ascending aorta was dissected free through a right hemithoracotomy, and ligated (3-0 silk) against a steel wire. The sham-operated rats (sham) were subjected to the same surgical procedure with a loose suture around the aorta. In all surgical procedures performed, a mixture of 67% N2O, 28% O2, and 4% isoflurane in an anaesthesia chamber was used for preoperative sedation. To maintain anaesthesia preoperatively, a mixture of 69% N2O, 29% O2, and 2% isoflurane was given by the endotracheal tube and the animals were ventilated on a respirator (Zoovent, Triumph Technical Services, Milton Keynes, UK). Buprenorphine was given as postoperative analgesia after AB.
# In vivo heart function was evaluated using the Vevo2100 system (Visualsonics Inc, Canada) as previously described (Sjaastad et al. J Appl Physiol 2000; 89:1445-54). Thereafter, the heart was excised under deep anaesthesia, washed in saline and blotted dry to remove blood in the cardiac chambers. […]
substance,measurement,setting,value
pentosan polysulfate [PPS],Body wt,"aortic banding rats, six weeks after AB",363 ± 6 g
same,Body wt,"sham-operated rats, six weeks",408 ± 18 g
